Experimental data from the supplement of paper PMC8256030.
Some of the results follow. This data set is noisy: repeats of one test often differ as much as different tests do.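 HEK293T cells were given each compound shortly before transfection with a reporter in which red mCherry is followed by the SARS-CoV-2 frameshift element and then GFP in the −1 frame, so GFP appears only after frameshifting.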

Key:
[1] = test system: SARS-CoV-2 -1 PRF reporter mCherry-FSE-GFP(-1); experiment: mCherry (red) intensity as percent of control; higher = higher upstream reporter expression; settings: 10 µM; 24 h; HEK293T
[2] = test system: SARS-CoV-2 -1 PRF reporter mCherry-FSE-GFP(-1); experiment: percent effect, decrease of GFP/mCherry ratio (-1 PRF reporter) relative to controls; higher = stronger frameshift inhibition; settings: 10 µM; 24 h; HEK293T

| SMILES | mCherry [1] | percent effect [2] |
| --- | --- | --- |
| N[C@@H](CSCC(=O)O)C(=O)O [Carbocisteine] | 99.2% | -2.78% |
| COc1cc(/C=C/C(=O)N2CCN(CC(=O)NC(C)C)CC2)cc(OC)c1OC [cinpropazide] | 101% | -6.36% |
| CC(=O)O[C@@]12CO[C@@H]1C[C@H](O)[C@@]1(C)C(=O)[C@H](O)C3=C(C)[C@@H](OC(=O)[C@H](O)[C@@H](NC(=O)OC(C)(C)C)c4ccccc4)C[C@@](O)([C@@H](OC(=O)c4ccccc4)[C@H]21)C3(C)C [docetaxel] | 63.8% | -1.86% |
| CCCCC[C@H](O)/C=C/[C@@H]1[C@@H](C/C=C\CCCC(=O)O)[C@@H](O)C[C@H]1O [Dinoprost Tromethamine] | 119% | -1.46% |
| CCCCCCCCCC(=O)N[C@@H](Cc1c[nH]c2ccccc12)C(=O)N[C@@H](CC(N)=O)C(=O)N[C@@H](CC(=O)O)C(=O)N[C@@H]1C(=O)NCC(=O)N[C@@H](CCCN)C(=O)N[C@@H](CC(=O)O)C(=O)N[C@H](C)C(=O)N[C@@H](CC(=O)O)C(=O)NCC(=O)N[C@H](CO)C(=O)N[C@@H]([C@H](C)CC(=O)O)C(=O)N[C@@H](CC(=O)c2ccccc2N)C(=O)O[C@@H]1C | 94.4% | -7.05% |
| CCOC(=O)C1=C(C)NC(C)=C(C(=O)OC)C1c1cccc([N+](=O)[O-])c1 (centres undefined) [nitrendipine] | 81.4% | -2.53% |
| C[C@H](N)[C@H](O)c1cccc(O)c1 | 115% | 2.49% |
| CCN1CC(CCN2CCOCC2)C(c2ccccc2)(c2ccccc2)C1=O (centres undefined) | 93.1% | -5.47% |
| CCOC(=O)c1ccc(C#Cc2ccc3c(c2)C(C)(C)CCS3)nc1 [tazarotene] | 98.6% | -0.821% |
| NCCc1ccc(O)c(O)c1 [dopamine] | 130% | -0.599% |
| CCCCNc1ccc(C(=O)OCCN(C)C)cc1 [tetracaine] | 93.3% | -4.51% |
| OC(CCN1CCCCC1)(c1ccccc1)C1CCCC1 (centres undefined) [cycrimine] | 92.2% | -2.24% |
| CCN(CC)CCOc1ccc2c(c1)C(=O)c1cc(OCCN(CC)CC)ccc1-2 | 104% | -2.59% |
| O=S(=O)(c1cccc2cnccc12)N1CCCNCC1 [fasudil] | 55.1% | -10.1% |
| NCCCC[C@H](NC(=O)[C@@H]1CCCN1C(=O)[C@@H]1CSSC[C@H](NC(=O)CNC(=O)CNC(=O)CN)C(=O)N[C@@H](Cc2ccc(O)cc2)C(=O)N[C@@H](Cc2ccccc2)C(=O)N[C@@H](CCC(N)=O)C(=O)N[C@@H](CC(N)=O)C(=O)N1)C(=O)NCC(N)=O [terlipressin] | 107% | -3.77% |
| CN1CCN(C2=Nc3ccccc3Oc3ccc(Cl)cc32)CC1 | 131% | -10.5% |
| OCC(O)COc1ccc(Cl)cc1 (centres undefined) [chlorphenesin] | 106% | -4.56% |
| O=C([O-])C(O)C(O)C(O)C(O)C(O)CO.[Na+] (centres undefined) | 97.2% | -1.77% |
| CCc1oc2ccccc2c1C(=O)c1cc(I)c(O)c(I)c1 [benziodarone] | 105% | -0.0238% |
| O=S(=O)(O)CCSSCCS(=O)(=O)O [dimesna] | 107% | -2.23% |
| C[C@@H]1C/C=C/C=C/C=C/C=C/[C@H](O[C@@H]2O[C@H](C)[C@@H](O)[C@H](N)[C@@H]2O)C[C@@H]2O[C@](O)(C[C@@H](O)C[C@H]3O[C@@H]3/C=C/C(=O)O1)C[C@H](O)[C@H]2C(=O)O [Natamycin] | 83.5% | -4.16% |
| Clc1ccccc1C(c1ccccc1)(c1ccccc1)n1ccnc1 [clotrimazole] | 59.8% | -14.9% |
| CCOC(=O)/C=C(C)/C=C/C=C(C)/C=C/c1c(C)cc(OC)c(C)c1C [Etretinate] | 53.4% | -3.13% |
| COCCCOc1ccnc(C[S+]([O-])c2nc3ccccc3[nH]2)c1C (centres undefined) [rabeprazole] | 104% | -0.631% |
| CNC(=O)COc1cc2cc(Nc3nc(N4CCC(C(=O)N(C)C)CC4)ncc3Cl)cc(OC)c2n(C)c1=O | 108% | -5.4% |
| C[C@@H]1C[C@H]2[C@@H]3C[C@H](F)C4=CC(=O)C(Cl)=C[C@]4(C)[C@@]3(F)[C@@H](O)C[C@]2(C)[C@@]1(O)C(=O)CO [halometasone] | 58.9% | -1.34% |
| NC(N)=O | 110% | -8.24% |

Gathered by group: the compounds so far containing a carbonyl joined to an NH by a bond outside any ring.

| SMILES | mCherry [1] | percent effect [2] |
| --- | --- | --- |
| COc1cc(/C=C/C(=O)N2CCN(CC(=O)NC(C)C)CC2)cc(OC)c1OC [cinpropazide] | 101% | -6.36% |
| CC(=O)O[C@@]12CO[C@@H]1C[C@H](O)[C@@]1(C)C(=O)[C@H](O)C3=C(C)[C@@H](OC(=O)[C@H](O)[C@@H](NC(=O)OC(C)(C)C)c4ccccc4)C[C@@](O)([C@@H](OC(=O)c4ccccc4)[C@H]21)C3(C)C [docetaxel] | 63.8% | -1.86% |
| CCCCCCCCCC(=O)N[C@@H](Cc1c[nH]c2ccccc12)C(=O)N[C@@H](CC(N)=O)C(=O)N[C@@H](CC(=O)O)C(=O)N[C@@H]1C(=O)NCC(=O)N[C@@H](CCCN)C(=O)N[C@@H](CC(=O)O)C(=O)N[C@H](C)C(=O)N[C@@H](CC(=O)O)C(=O)NCC(=O)N[C@H](CO)C(=O)N[C@@H]([C@H](C)CC(=O)O)C(=O)N[C@@H](CC(=O)c2ccccc2N)C(=O)O[C@@H]1C | 94.4% | -7.05% |
| NCCCC[C@H](NC(=O)[C@@H]1CCCN1C(=O)[C@@H]1CSSC[C@H](NC(=O)CNC(=O)CNC(=O)CN)C(=O)N[C@@H](Cc2ccc(O)cc2)C(=O)N[C@@H](Cc2ccccc2)C(=O)N[C@@H](CCC(N)=O)C(=O)N[C@@H](CC(N)=O)C(=O)N1)C(=O)NCC(N)=O [terlipressin] | 107% | -3.77% |
| CNC(=O)COc1cc2cc(Nc3nc(N4CCC(C(=O)N(C)C)CC4)ncc3Cl)cc(OC)c2n(C)c1=O | 108% | -5.4% |
| NC(N)=O | 110% | -8.24% |
